# Test results as given in PubChem BioAssay AID504834 (National Center for Advancing Translational Sciences (NCATS), 2011).
# Hit rate of the full screen: of about 320,000 compounds, about 22,000 (6.9%) were called active. Inconclusive means that the source gave no clear call. Such entries were picked first, then a sample of the others. Calls come from the whole dose curve; as a rule, active = well fitted inhibition curve with a large enough effect; inconclusive = small, poorly fitted or top-dose-only effect, or another doubt; inactive = no such curve, though single readings can be large or run the other way. Where the call is inconclusive, the potency comes from a doubtful curve fit.
# Assay: Primary qHTS for delayed death inhibitors of the malarial parasite plastid, 96 hour incubation
# Details: P. falciparum luciferase reporter growth; series mostly up to 28.7 µM; activity change, negative = inhibition: at the top concentration
# Method in brief: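 Parasite growth measured via integrated firefly luciferase reporter in P. falciparum. Infected erythrocytes at 2% hematocrit, 0.05% parasitemia final were treated 96 hours at 37 C under 5% CO2, and luminescence was read.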
# % is set by controls: 0 for no effect and ±100 for the full control effect; potency is the fitted concentration of half-maximal effect.
Structure (SMILES),Potency,"activity change, negative = inhibition"
Cc1[nH]c2ccccc2c1C(=O)C(=O)NCCC1=CCCCC1,"inconclusive: 2.33 µM [inhibitor, full curve]",–
C=CCN(C(=O)c1csnn1)C(C(=O)NC1CCCC1)c1cccs1 (stereo not drawn),–,inactive: -16.4%
S=C(c1ccc(-c2ccc(Cl)c(Cl)c2)o1)N1CCOCC1,–,inactive: 213%
CC1(C)Cc2c(c(-c3ccccc3)nc(N3CCCC3)c2C(N)=O)CO1,"inconclusive: 18.5 µM [inhibitor, single point]",–
CC(C)(CO)NCC(O)Cn1cc(C=O)c2ccccc21 (stereo not drawn),–,inactive: 36.5%
O=C(Nc1ccc(Cl)cc1)N(Cc1nnc2n1CCCCC2)c1ccccc1,"inconclusive: 10.4 µM [inhibitor, single point]",–
O=C(NCCc1ccccn1)c1cccc(S(=O)(=O)N2CCCCCC2)c1,"inconclusive: 0.329 µM [inhibitor, partial curve, poor fit]",–
O=C(Cc1ccccc1)Nc1cccc(S(=O)(=O)N2CCCCCC2)c1,"inconclusive: 16.5 µM [inhibitor, single point]",–
CC12CCC(C(=O)N3CCCc4ccccc43)(OC1=O)C2(C)C (stereo not drawn),–,inactive: 20.5%
CCOC(=O)COc1ccc(S(=O)(=O)c2ccc(OCC(=O)OCC)cc2)cc1,"inconclusive: 14.7 µM [inhibitor, single point]",–
Clc1ccccc1CNc1ncnc2nc[nH]c12,"inconclusive: 18.5 µM [inhibitor, single point]",–
CCOC(=O)C1CCN(S(=O)(=O)c2ccc(C)c(C(=O)NC3CCCCC3)c2)CC1,"inconclusive: 13.1 µM [inhibitor, single point]",–
CC(=O)Nc1ccc(NC(=O)c2ccc(S(=O)(=O)N(C)c3ccccc3)cc2)cc1,"inconclusive: 8.28 µM [inhibitor, partial curve, poor fit]",–
COc1cccc(CN2CCN(C(=O)c3cccc4ccccc34)CC2)c1,"inconclusive: 13.1 µM [inhibitor, partial curve, poor fit]",–
CCCc1cc(=O)oc2c(C)c(OCC(=O)NCCCn3ccnc3)ccc12,"inconclusive: 14.7 µM [inhibitor, partial curve, poor fit]",–
CCCN(CCC)CCCNC(=O)C(NS(=O)(=O)c1ccc2c(c1)CCC(=O)N2)c1ccccc1 (stereo not drawn),"inconclusive: 18.5 µM [inhibitor, single point]",–
COc1ccc(C(=O)C2CCCN(Cc3c(C)[nH]c4ccccc34)C2)c(OC)c1 (stereo not drawn),"inconclusive: 16.5 µM [inhibitor, partial curve, poor fit]",–
CCOC(=O)N1CCN(c2nc(-c3ccco3)cc(C(F)(F)F)n2)CC1,–,inactive: -11.9%

# Full records from above. Values in the order: Potency	activity change, negative = inhibition
# `CCCc1cc(=O)oc2c(C)c(OCC(=O)NCCCn3ccnc3)ccc12` reads inconclusive: 14.7 µM [inhibitor, partial curve, poor fit]	–
# `CCOC(=O)N1CCN(c2nc(-c3ccco3)cc(C(F)(F)F)n2)CC1` reads –	inactive: -11.9%
